Some of the results follow.
Assays:
Experiment in all cases: log2 fold change, soluble protein after heating vs DMSO (PISA); higher = thermal stabilisation; K562 lysate, 10 uM; active = over 0.2 and 3.5 SD of the protein, either way, in both replicates (recomputed)
[1] = compound: C1=CC=C(C=C1)[C@H](COC2=CC3=C(C=C2)NC(=O)N3)NC(=O)C4=CC=CN(C4=O)CC5=CC(=C(C=C5)F)F
Method in brief: (§1)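 Thermal stability, expressed as log-two fold change relative to solvent controls, is given from duplicates. Crude K562 extract in PBS pH 7.4 with 1 mM MgCl2, at 1 mg/mL protein, was treated with 10 μM compound for 30 min and heated in aliquots for 3 min across 48°C-58°C. After pooling, adjustment to 0.5% NP-40 at 4°C and centrifugation at 21,000xg for 90 min, supernatant protein was measured by TMTpro 16plex LC-MS/MS with channel sums equalised.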

Chains of the proteins cited; added tags and fusions are not shown. Lines headed by an entry give the natural chain unless they say otherwise; changes in a name come on top.
UniProt O15550, whole entry, looked up: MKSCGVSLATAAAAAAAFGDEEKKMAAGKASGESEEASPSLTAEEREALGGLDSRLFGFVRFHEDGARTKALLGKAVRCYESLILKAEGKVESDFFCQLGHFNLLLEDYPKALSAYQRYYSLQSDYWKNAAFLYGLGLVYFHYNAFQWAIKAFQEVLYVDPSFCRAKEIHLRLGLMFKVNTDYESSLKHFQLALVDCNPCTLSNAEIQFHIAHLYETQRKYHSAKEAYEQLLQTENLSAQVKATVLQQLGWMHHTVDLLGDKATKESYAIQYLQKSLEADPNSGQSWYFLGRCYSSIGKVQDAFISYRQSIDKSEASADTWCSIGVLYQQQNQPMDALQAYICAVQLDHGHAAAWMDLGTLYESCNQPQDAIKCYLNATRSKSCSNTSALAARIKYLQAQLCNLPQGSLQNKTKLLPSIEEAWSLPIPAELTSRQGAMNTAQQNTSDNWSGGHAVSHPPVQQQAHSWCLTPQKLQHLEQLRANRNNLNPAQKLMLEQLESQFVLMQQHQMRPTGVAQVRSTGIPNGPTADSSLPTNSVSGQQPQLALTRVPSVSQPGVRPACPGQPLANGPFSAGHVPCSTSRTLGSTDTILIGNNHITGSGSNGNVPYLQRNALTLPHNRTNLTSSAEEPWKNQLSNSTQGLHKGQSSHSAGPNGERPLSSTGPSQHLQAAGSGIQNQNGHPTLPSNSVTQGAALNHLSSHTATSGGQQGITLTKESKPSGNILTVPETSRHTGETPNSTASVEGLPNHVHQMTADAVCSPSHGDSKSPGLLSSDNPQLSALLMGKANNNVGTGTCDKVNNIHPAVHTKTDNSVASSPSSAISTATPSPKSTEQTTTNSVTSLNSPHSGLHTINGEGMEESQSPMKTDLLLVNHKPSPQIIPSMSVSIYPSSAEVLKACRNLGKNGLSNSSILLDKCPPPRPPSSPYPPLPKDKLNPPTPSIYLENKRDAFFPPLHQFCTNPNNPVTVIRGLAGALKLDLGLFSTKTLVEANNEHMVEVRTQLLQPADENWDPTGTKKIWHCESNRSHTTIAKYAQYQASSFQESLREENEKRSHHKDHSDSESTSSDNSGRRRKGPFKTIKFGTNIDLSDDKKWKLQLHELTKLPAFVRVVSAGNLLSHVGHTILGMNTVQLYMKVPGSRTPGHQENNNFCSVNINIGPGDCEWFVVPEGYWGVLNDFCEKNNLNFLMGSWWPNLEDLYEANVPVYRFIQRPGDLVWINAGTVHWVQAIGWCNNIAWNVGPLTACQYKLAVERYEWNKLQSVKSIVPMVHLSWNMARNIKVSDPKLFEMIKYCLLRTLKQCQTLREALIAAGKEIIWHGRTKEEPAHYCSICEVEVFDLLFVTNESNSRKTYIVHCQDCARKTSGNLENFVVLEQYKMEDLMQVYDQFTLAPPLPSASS
UniProt Q9UHA4, whole entry, looked up: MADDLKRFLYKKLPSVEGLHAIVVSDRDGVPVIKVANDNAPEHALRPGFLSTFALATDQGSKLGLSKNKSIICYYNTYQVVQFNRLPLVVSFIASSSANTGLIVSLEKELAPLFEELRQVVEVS
UniProt O60662: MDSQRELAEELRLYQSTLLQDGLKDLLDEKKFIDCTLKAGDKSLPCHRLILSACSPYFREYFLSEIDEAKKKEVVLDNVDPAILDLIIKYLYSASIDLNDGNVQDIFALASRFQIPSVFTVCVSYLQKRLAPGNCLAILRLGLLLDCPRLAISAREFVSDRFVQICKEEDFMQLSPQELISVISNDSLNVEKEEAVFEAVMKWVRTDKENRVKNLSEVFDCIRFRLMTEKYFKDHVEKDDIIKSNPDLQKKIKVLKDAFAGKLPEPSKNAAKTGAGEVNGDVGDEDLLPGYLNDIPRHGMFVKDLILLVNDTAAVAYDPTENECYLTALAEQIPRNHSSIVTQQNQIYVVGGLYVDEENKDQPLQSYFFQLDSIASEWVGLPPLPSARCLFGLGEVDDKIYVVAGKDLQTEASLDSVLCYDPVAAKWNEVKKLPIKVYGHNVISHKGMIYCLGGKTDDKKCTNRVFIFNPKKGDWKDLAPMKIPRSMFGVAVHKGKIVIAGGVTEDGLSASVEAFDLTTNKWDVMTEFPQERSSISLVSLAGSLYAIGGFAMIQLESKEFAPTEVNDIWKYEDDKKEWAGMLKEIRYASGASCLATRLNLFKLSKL
UniProt Q9HCI6: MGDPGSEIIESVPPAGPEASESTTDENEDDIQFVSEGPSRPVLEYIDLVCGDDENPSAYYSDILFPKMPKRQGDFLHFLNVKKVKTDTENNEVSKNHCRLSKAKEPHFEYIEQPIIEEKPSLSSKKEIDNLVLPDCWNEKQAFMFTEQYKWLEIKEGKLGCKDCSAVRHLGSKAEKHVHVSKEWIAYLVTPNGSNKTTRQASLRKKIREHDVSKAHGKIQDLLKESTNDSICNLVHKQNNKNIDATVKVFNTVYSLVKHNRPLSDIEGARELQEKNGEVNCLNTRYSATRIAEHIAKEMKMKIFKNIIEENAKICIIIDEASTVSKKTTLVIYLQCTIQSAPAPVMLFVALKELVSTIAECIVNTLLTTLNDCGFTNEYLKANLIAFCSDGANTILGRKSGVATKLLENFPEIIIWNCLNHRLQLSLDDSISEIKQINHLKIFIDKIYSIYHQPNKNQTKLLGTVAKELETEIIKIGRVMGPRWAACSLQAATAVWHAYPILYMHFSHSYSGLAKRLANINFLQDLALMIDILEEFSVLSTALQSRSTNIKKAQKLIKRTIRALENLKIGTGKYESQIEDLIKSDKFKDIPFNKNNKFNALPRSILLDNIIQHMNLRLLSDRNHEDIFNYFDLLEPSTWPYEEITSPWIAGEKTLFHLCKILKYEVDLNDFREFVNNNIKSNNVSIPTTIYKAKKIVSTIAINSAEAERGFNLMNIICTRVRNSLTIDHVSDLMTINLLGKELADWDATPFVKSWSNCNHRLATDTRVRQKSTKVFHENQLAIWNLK
UniProt Q92945: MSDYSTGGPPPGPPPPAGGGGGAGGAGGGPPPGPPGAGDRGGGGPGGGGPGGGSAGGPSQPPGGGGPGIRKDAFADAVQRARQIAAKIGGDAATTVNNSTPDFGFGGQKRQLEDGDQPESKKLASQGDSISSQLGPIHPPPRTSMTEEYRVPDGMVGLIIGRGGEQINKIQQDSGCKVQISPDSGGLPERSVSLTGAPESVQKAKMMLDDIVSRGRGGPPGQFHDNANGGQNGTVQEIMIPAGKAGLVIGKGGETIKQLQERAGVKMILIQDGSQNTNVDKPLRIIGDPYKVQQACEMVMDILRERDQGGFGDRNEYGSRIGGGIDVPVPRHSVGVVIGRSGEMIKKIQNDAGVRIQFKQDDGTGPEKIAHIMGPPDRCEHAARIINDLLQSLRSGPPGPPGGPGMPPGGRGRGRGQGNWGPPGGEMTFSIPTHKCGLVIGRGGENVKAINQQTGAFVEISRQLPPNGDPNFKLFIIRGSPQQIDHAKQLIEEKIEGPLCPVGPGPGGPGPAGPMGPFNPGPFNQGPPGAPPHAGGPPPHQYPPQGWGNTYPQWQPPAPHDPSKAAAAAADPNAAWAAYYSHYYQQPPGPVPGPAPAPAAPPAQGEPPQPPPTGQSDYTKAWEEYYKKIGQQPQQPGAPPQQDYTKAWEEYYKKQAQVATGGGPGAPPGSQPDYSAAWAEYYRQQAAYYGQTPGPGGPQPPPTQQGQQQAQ
UniProt Q96A73: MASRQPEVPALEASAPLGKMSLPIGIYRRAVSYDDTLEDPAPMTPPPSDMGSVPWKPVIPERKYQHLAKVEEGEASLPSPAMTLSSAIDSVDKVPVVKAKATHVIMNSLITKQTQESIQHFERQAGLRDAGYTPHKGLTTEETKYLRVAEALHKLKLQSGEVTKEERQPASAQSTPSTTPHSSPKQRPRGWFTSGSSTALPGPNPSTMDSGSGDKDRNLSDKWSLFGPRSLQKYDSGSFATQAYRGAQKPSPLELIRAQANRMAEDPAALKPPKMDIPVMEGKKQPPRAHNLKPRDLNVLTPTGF
UniProt P50748: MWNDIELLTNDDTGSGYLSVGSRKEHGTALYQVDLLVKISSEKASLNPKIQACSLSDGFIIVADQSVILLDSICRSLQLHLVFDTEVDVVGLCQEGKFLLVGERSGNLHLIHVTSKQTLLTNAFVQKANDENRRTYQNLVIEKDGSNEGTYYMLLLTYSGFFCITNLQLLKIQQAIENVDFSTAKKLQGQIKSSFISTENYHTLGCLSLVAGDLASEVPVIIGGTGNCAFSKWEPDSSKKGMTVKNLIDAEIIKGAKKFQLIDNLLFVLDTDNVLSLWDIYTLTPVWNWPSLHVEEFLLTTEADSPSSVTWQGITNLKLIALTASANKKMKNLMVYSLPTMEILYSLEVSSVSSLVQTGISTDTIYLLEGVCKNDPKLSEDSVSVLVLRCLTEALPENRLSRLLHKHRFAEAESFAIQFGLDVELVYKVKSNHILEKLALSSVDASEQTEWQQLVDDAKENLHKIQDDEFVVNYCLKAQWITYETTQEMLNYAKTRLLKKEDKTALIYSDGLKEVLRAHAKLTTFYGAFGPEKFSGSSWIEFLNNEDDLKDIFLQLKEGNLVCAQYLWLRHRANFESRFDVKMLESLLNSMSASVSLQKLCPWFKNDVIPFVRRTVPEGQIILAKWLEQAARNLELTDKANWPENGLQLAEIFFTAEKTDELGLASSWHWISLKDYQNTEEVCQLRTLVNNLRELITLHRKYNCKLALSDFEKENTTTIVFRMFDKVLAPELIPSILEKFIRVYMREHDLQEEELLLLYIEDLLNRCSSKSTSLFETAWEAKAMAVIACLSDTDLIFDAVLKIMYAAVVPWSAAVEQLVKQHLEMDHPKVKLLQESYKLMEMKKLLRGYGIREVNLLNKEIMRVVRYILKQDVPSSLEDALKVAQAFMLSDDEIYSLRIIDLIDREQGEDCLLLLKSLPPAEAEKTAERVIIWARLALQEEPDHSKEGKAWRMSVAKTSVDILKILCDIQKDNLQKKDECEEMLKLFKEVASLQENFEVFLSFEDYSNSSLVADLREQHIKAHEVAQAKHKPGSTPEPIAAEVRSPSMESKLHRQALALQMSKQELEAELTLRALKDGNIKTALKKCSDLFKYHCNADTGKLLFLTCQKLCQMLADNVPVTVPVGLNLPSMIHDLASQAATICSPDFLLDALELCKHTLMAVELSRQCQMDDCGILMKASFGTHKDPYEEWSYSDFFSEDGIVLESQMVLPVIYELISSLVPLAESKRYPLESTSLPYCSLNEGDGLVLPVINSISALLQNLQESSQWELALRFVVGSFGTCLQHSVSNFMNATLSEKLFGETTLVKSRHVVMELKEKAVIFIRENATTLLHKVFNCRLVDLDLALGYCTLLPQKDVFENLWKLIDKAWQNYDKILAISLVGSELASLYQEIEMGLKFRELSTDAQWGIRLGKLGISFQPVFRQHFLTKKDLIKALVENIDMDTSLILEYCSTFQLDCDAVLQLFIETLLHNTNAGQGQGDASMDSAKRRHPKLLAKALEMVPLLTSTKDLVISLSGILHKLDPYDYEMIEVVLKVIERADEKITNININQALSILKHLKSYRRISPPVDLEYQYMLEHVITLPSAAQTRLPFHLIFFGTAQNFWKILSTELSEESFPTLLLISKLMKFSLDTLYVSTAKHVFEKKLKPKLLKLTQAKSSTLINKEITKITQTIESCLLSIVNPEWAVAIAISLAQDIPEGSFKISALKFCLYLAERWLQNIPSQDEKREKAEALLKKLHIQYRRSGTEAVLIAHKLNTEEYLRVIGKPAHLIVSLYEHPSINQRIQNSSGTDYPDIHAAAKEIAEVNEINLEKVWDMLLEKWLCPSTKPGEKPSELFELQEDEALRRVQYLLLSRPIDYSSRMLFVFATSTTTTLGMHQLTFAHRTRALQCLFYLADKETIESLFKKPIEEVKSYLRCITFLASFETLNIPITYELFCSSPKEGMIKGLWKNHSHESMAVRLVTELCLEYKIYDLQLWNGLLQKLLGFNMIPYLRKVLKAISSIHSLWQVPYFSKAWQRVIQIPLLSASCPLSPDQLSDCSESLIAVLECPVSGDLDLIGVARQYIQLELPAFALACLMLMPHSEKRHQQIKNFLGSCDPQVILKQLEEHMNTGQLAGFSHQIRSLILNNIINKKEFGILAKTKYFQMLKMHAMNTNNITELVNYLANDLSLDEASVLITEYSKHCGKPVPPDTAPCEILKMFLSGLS
UniProt P11279: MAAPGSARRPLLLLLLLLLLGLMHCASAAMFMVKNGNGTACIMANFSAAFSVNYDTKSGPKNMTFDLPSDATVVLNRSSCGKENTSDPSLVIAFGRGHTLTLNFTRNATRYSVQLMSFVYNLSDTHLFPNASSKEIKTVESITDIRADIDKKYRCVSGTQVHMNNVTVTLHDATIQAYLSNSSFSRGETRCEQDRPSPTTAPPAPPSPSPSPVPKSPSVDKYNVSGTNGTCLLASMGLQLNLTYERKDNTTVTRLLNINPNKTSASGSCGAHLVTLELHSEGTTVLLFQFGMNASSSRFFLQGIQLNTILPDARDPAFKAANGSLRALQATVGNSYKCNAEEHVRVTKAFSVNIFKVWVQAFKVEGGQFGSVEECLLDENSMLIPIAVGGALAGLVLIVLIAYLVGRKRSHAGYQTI

[2] = compound: CC1=C(SC2=C1C(=N[C@H](C3=NN=C(N32)C)CC(=O)N)C4=CC=C(C=C4)Cl)C
Method in brief: as §1

[3] = compound: CC1=C2C(=CC=C1)N=C(N(C2=O)C3=CC=CC=C3C)CN4C=NC5=C(N=CN=C54)N
Method in brief: as §1

[4] = compound: Cc1sc2c(c1C)C(c1ccc(Cl)cc1)=N[C@@H](CC(=O)OC(C)(C)C)c1nnc(C)n1-2
Method in brief: as §1

[5] = compound: c1ccc([C@@H]2C[C@H]2NC2CCNCC2)cc1
Method in brief: as §1

Target | log2 fold change [1] | log2 fold change [2] | log2 fold change [3] | log2 fold change [4] | log2 fold change [5]
L3HYPDH (UniProt Q96EM0) | inactive: -0.022 | inactive: 0.042 | inactive: 0.003 | inactive: -0.014 | inactive: 0.01
LARP1B, A0A3B3ISF0 | inactive: 0.003 | inactive: 0.083 | inactive: 0.038 | inactive: -0.026 | inactive: 0.038
KDM6A (UniProt O15550) | inactive: -0.024 | inactive: -0.019 | inactive: 0.049 | inactive: -0.03 | inactive: 0.008
KLHDC4 (UniProt Q8TBB5) | inactive: 0.06 | inactive: 0 | inactive: 0.031 | inactive: 0.012 | inactive: 0.069
KIFC3 isoform 6 (UniProt Q9BVG8) | inactive: 0.023 | inactive: 0.016 | inactive: -0.178 | inactive: -0.21 | active: -1.16
LAMTOR2 (UniProt Q9Y2Q5) | inactive: -0.085 | inactive: -0.137 | inactive: 0.055 | inactive: -0.023 | inactive: -0.159
KIF5B (UniProt P33176) | inactive: 0 | inactive: 0 | inactive: 0.02 | inactive: 0.007 | inactive: 0.085
LAMTOR3 (UniProt Q9UHA4) | inactive: -0.028 | inactive: -0.002 | inactive: 0.001 | inactive: -0.036 | inactive: -0.124
KLF16 (UniProt Q9BXK1) | inactive: -0.011 | inactive: -0.072 | inactive: 0.021 | inactive: 0.041 | inactive: -0.208
KTI12 (UniProt Q96EK9) | inactive: -0.023 | inactive: -0.015 | inactive: 0.006 | inactive: -0.133 | inactive: -0.007
KIF13A isoform 4 (UniProt Q9H1H9) | inactive: 0.036 | inactive: -0.017 | inactive: 0.024 | inactive: 0.06 | inactive: 0
KIZ (UniProt Q2M2Z5) | inactive: 0.025 | inactive: 0.015 | inactive: -0.056 | inactive: -0.236 | inactive: 0.019
KIAA0319L (UniProt Q8IZA0) | inactive: 0.057 | inactive: 0.005 | inactive: -0.017 | inactive: -0.017 | inactive: 0.001
KLHL41 (UniProt O60662) | inactive: -0.039 | inactive: 0.062 | inactive: 0.17 | inactive: -0.205 | inactive: -0.216
KIF21A isoform 5 (UniProt Q7Z4S6) | inactive: -0.023 | inactive: 0.024 | inactive: -0.003 | inactive: 0.009 | inactive: 0.118
KIF3A (UniProt Q9Y496) | inactive: -0.063 | inactive: 0.084 | inactive: 0.018 | inactive: 0.132 | inactive: -0.034
KHNYN (UniProt O15037) | inactive: -0.037 | inactive: -0.055 | inactive: -0.008 | inactive: -0.008 | 
KIFC1 (UniProt Q9BW19) | inactive: 0.046 | inactive: -0.008 | inactive: 0.122 | inactive: 0.021 | inactive: 0.029
KIF4B (UniProt Q2VIQ3) | inactive: 0.035 | inactive: 0.009 | inactive: -0.02 | inactive: 0.029 | inactive: 0.013
KRIT1 (UniProt O00522) | inactive: -0.026 | inactive: -0.041 | inactive: 0.099 | inactive: -0.082 | 
KIF26A (UniProt Q9ULI4) | inactive: 0.044 | inactive: -0.011 | inactive: 0.053 | inactive: 0.09 | inactive: -0.018
KLHL12 isoform 2 (UniProt Q53G59) | inactive: 0.152 | inactive: -0.049 | inactive: -0.013 | inactive: 0.161 | 
KTN1 (UniProt G3V5Q0) | inactive: -0.119 | inactive: 0.092 | inactive: 0.111 |  | 
KIAA1586 (UniProt Q9HCI6) | inactive: 0.02 | inactive: 0.08 | inactive: 0.076 | inactive: -0.093 | 
KIAA1549 (UniProt Q9HCM3) | inactive: -0.079 | inactive: 0.048 |  |  | 
KLF1 (UniProt Q13351) | inactive: 0.009 | inactive: 0.059 |  |  | 
KLC1 isoform 10 (UniProt Q07866) | inactive: -0.094 | inactive: -0.063 |  |  | 
KHSRP (UniProt Q92945) | inactive: 0.01 | inactive: -0.011 | inactive: -0.007 | inactive: 0.026 | inactive: -0.035

Target | log2 fold change [1] | log2 fold change [2] | log2 fold change [3] | log2 fold change [4] | log2 fold change [5]
KLHDC10 (UniProt Q6PID8) | inactive: -0.051 | inactive: 0.119 | inactive: 0.067 | inactive: -0.049 | inactive: -0.089
KIF1B isoform 2 (UniProt O60333) | inactive: 0.007 | inactive: -0.04 | inactive: 0.05 | inactive: -0.017 | inactive: 0.008
KIF15 (UniProt Q9NS87) | inactive: -0.008 | inactive: -0.003 | inactive: 0.021 | inactive: -0.02 | inactive: 0.013
KIF13B (UniProt Q9NQT8) | inactive: -0.017 | inactive: 0.023 | inactive: 0.044 | inactive: 0.082 | inactive: -0.039
KLC2 (UniProt Q9H0B6) | inactive: -0.032 | inactive: 0.016 | inactive: 0.029 | inactive: 0.003 | inactive: 0.122
LANCL2 (UniProt Q9NS86) | inactive: 0.024 | inactive: -0.012 | inactive: 0.016 | inactive: 0.002 | inactive: -0.064
KRT13 (UniProt K7EMD9) | inactive: -0.166 | inactive: 0.093 |  |  | 
KMT2C isoform 3 (UniProt Q8NEZ4) | inactive: 0.071 | inactive: 0.13 | inactive: -0.024 | inactive: -0.031 | inactive: 0.018
LACTB2 (UniProt Q53H82) | inactive: 0.055 | inactive: -0.031 | inactive: -0.008 | inactive: -0.015 | inactive: -0.009
KYNU (UniProt Q16719) | inactive: 0.039 | inactive: -0.009 | inactive: 0.026 | inactive: -0.073 | inactive: -0.029
KIAA1143 (UniProt Q96AT1) | inactive: 0.013 | inactive: -0.012 | inactive: -0.032 | inactive: -0.074 | inactive: -0.043
KIAA1191 (UniProt Q96A73) | inactive: 0.026 | inactive: -0.03 | inactive: -0.05 | inactive: 0.017 | inactive: -0.044
KPNA1 (UniProt P52294) | inactive: -0.001 | inactive: 0.042 | inactive: 0.024 | inactive: -0.013 | inactive: -0.016
LARP4 isoform 4 (UniProt Q71RC2) | inactive: 0 | inactive: 0.006 | inactive: -0.025 | inactive: 0.028 | inactive: 0
KPTN (UniProt Q9Y664) | inactive: 0.037 | inactive: 0.099 | inactive: -0.033 | inactive: -0.048 | inactive: -0.027
LAMTOR1 (UniProt Q6IAA8) | inactive: -0.048 | inactive: -0.048 | inactive: -0.013 | inactive: -0.023 | inactive: 0.177
KIF5A (UniProt Q12840) | inactive: -0.001 | inactive: 0.01 | inactive: 0.014 | inactive: -0.041 | inactive: 0.028
KRR1 (UniProt Q13601) | inactive: 0.019 | inactive: -0.017 | inactive: 0.005 | inactive: 0.062 | inactive: 0.035
KIAA0100 (UniProt Q14667) | inactive: -0.054 | inactive: 0.074 | inactive: 0.179 | inactive: -0.172 | inactive: -0.063
KNTC1 (UniProt P50748) | inactive: -0.01 | inactive: 0.024 | inactive: 0.062 | inactive: -0.002 | inactive: -0.003
KIAA1522 isoform 2 (UniProt Q9P206) | inactive: 0.021 | inactive: -0.036 | inactive: 0.018 | inactive: -0.016 | inactive: -0.031
KPNA4 (UniProt O00629) | inactive: 0.06 | inactive: -0.068 | inactive: 0.044 | inactive: 0.011 | inactive: -0.169
LAMB1 (UniProt P07942) | inactive: 0.012 | inactive: -0.051 | inactive: -0.029 | inactive: -0.041 | inactive: 0.013
KIF11 (UniProt P52732) | inactive: 0.008 | inactive: -0.001 | inactive: 0.006 | inactive: -0.002 | inactive: 0
KEL (UniProt P23276) | inactive: 0.032 | inactive: -0.058 | inactive: 0.013 | inactive: -0.061 | inactive: 0.054
KIFBP (UniProt Q96EK5) | inactive: -0.046 | inactive: 0.011 | inactive: 0.011 | inactive: 0.042 | inactive: 0.044
LAMP1 (UniProt P11279) | inactive: -0.006 | inactive: 0.008 | inactive: 0.017 | inactive: -0.125 | inactive: -0.299

Reprinted at random: two records from the list, in no set order.
Target | log2 fold change [1] | log2 fold change [2] | log2 fold change [3] | log2 fold change [4] | log2 fold change [5]
LACTB2 (UniProt Q53H82) | inactive: 0.055 | inactive: -0.031 | inactive: -0.008 | inactive: -0.015 | inactive: -0.009
KLF16 (UniProt Q9BXK1) | inactive: -0.011 | inactive: -0.072 | inactive: 0.021 | inactive: 0.041 | inactive: -0.208
